Results as given in PubChem BioAssay AID1347076 (National Center for Advancing Translational Sciences (NCATS), 2019).
Hit rate of the full screen: of about 400,000 compounds, about 13,000 (3.2%) were called active. The shares of active, inactive and inconclusive entries below differ from those in the screen. Calls follow the shape of the dose curve; as a rule, active = well fitted cell-killing curve with a large enough effect; inconclusive = small, poorly fitted or top-dose-only effect, or effect the other way; inactive = flat fitted curve, though single readings scatter. Potencies of inconclusive entries are doubtful fits and often do not repeat.

experiment: qHTS assay for MDR1-selective chemotherapeutics: Primary screen using the drug-selected MDR subline cells KB-V1; conditions: KB-V1 MDR cells viability, CellTiter-Glo, 72 h; activity change, negative = cytotoxicity: at 46.1 µM (top of the series); also: nearly all actives have a fitted effect of over 60% in size
Method in brief: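 Compound-treated KB-V1 multidrug-resistant cells, 72 h, 37 degrees C; viability by CellTiter-Glo. Fitted qHTS curves give the values.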
% is scaled to controls: 0 for no effect and ±100 for the full control effect; potency is read from the fitted curve at half-maximal effect.

Row | Compound | activity change, negative = cytotoxicity | Potency
1 | O=C(NC1CCCCC1)C(c1ccnc2ccccc12)N1CCc2ccccc2C1 (stereo not drawn) | inactive: 12.5% | –
2 | COc1ccc(CNC(=O)Cc2ccc(-c3ccccc3)cc2)cc1OC | – | active: 7.31 µM
3 | COc1ccc(C)cc1NC(=O)c1c(C(=O)Nc2cccc(C)c2C)sc2nc(C)cc(=O)n12 | – | inconclusive: 0.0461 µM [rising, full curve]
4 | CCOc1ccc(CCNC(=O)Cn2ccc3cc(S(=O)(=O)N4CCCC4)ccc32)cc1 | – | inconclusive: 10.3 µM [cytotoxic, partial curve]
5 | S=c1[nH]nc(-c2cccs2)n1/N=C/c1cn(-c2ccccc2)nc1-c1cccs1 | inactive: -24.2% | –
6 | c1ccc2oc(Cc3ccc(Cc4nc5ccccc5o4)cc3)nc2c1 | – | inconclusive: 23.1 µM [cytotoxic, single point]
7 | COc1ccc(C=NNC(=O)c2ccccc2NS(=O)(=O)c2cccs2)cc1O | – | inconclusive: 29.1 µM [rising, single point]
8 | CCCN(CC(=O)Nc1ccc(F)c(F)c1F)C(=O)Cc1ccc(S(=O)(=O)N2CCOCC2)s1 | inactive: -12.6% | –
9 | CCOc1ccc(OCC)c(NC(=O)c2cnn(-c3ccc(F)cc3)c2C2CCN(C(=O)OC(C)(C)C)CC2)c1 | – | inconclusive: 23.1 µM [cytotoxic, single point]
10 | CCCn1c(SCC(=O)Nc2nc3c(s2)CCCC3)nc2c1c(=O)n(C)c(=O)n2C | inactive: 0% | –
11 | CC(=O)c1c(C)[nH]c(C(=O)COc2cc(C)cc(C)c2)c1C | – | active: 2.59 µM
12 | COc1cc(Cl)ccc1NC(=S)N(CCN1CCOCC1)C1CCN(C(C)=O)CC1 | – | inconclusive: 20.6 µM [cytotoxic, partial curve, poor fit]
13 | CC(=O)Nc1ccc(C=NNc2ccc([N+](=O)[O-])cn2)cc1 | inactive: 3.84% | –
14 | CCCNCc1cc(Br)ccc1OCC(=O)NCCc1ccccc1 | – | inconclusive: 1.64 µM [cytotoxic, full curve]
15 | O=C(c1cc2c(s1)CCCC2)N1CCN(S(=O)(=O)c2ccccc2C(F)(F)F)CC1 | – | inconclusive: 8.2 µM [cytotoxic, partial curve]
16 | CCOC(=O)C[C@@H]1OC2CCCCC2N1S(=O)(=O)c1ccc(C)cc1 (stereo partly drawn) | – | inconclusive: 18.4 µM [cytotoxic, partial curve]
17 | Cc1ccc(NC(=O)CN2C(=O)CSc3ccc(S(=O)(=O)N(C)C)cc32)c(C)c1 | inactive: -6.72% | –
18 | COc1ccc(C)cc1NC(=O)CN1CCN(S(=O)(=O)c2ccc(C(C)C)cc2)CC1 | – | inconclusive: 9.2 µM [cytotoxic, partial curve, poor fit]
19 | CCOC(=O)C1(C)CCCN(C(=O)c2ccc3c(c2)CCO3)C1 (stereo not drawn) | inactive: 3.14% | –
20 | COc1ccc2sc(N(Cc3cccnc3)C(=O)c3cccs3)nc2c1 | – | inconclusive: 7.31 µM [cytotoxic, partial curve]
21 | Cc1ccc2c(c1)C(c1ccccc1)N(C(=O)c1ccc(S(=O)(=O)N3CCCC3)cc1)CC(=O)N2 (stereo not drawn) | – | inconclusive: 29.1 µM [rising, single point]
22 | Cc1nn(-c2ccccc2)c(N2CCCC2)c1/C=N/NC(=S)Nc1ccccc1C(F)(F)F | – | inconclusive: 8.2 µM [cytotoxic, partial curve]

Row | Compound | activity change, negative = cytotoxicity | Potency
23 | CCOC(=O)c1c(C)[nH]c(C)c1S(=O)(=O)N1CCN(c2cccc(C)c2)C(C)C1 (stereo not drawn) | inactive: -1.08% | –
24 | O=C(CN1CCc2ccccc2C1)Nc1ccc(Br)cc1 | – | inconclusive: 14.1 µM [cytotoxic, single point]
25 | CCCCN(C)C(=O)c1oc2ccc(S(=O)(=O)N3CCCCCC3)cc2c1C | – | active: 2.59 µM
26 | Cc1ccc(NC(=O)COC(=O)c2c(-c3ccccc3)noc2C)cc1 | – | inconclusive: 20.6 µM [cytotoxic, single point]
27 | CCOC(=O)/C(C#N)=C/c1ccc(-c2ccccc2)o1 | inactive: 0% | –
28 | NC(=O)c1ccccc1NS(=O)(=O)c1cccs1 | – | inconclusive: 11.6 µM [rising, partial curve]
29 | COc1ccc2sc(N(Cc3cccnc3)C(=O)C3COc4ccccc4O3)nc2c1 (stereo not drawn) | inactive: 11.8% | –
30 | CCN(CC1CCCN(CCc2cccc(F)c2)C1)C(=O)c1ccoc1C (stereo not drawn) | – | inconclusive: 14.6 µM [cytotoxic, partial curve]
31 | CCCC(=O)NC(c1ccc(C(C)C)cc1)c1ccc2cccnc2c1O (stereo not drawn) | – | inconclusive: 1.03 µM [cytotoxic, full curve]
32 | Cc1cc(NC(=O)CSc2ccc(-c3nc4cc(C)c(C)cc4[nH]3)cn2)no1 | – | inconclusive: 11.6 µM [cytotoxic, partial curve]
33 | FC(F)(F)c1ccc(N2CCOCC2)c(Nc2nc3ccccc3n3cnnc23)c1 | – | inconclusive: 14.6 µM [cytotoxic, partial curve]
34 | Cc1ccc(-n2c(=O)c(C#N)cc3c(=O)n4ccccc4nc32)cc1C | – | inconclusive: 9.2 µM [cytotoxic, partial curve]
35 | Cc1nn(Cc2ccc(C(=O)Nc3ccccc3C(F)(F)F)o2)c(C)c1Br | inactive: -4.51% | –
36 | O=C(CN1CCC(C(=O)c2ccc3c(c2)OCCO3)CC1)NCc1ccc(F)cc1 | – | inconclusive: 8.2 µM [cytotoxic, partial curve]
37 | CCCn1cc(S(=O)(=O)c2ccccc2)c(=O)c2cc(F)c(N3CCCCCC3)cc21 | – | inconclusive: 13 µM [cytotoxic, partial curve]
38 | CSCCC(C(=O)Nc1c(C)cccc1C)n1c(-c2ccc(-c3ccccc3)cc2)nc2ccccc21 (stereo not drawn) | inactive: -18.9% | –
39 | COc1ccc(CN2CCC(N(CCc3ccccc3)Cc3ccccc3)CC2)c(OC)c1 | – | active: 13 µM
40 | COc1cccc(N2CCN(CC(=O)Nc3ccc(S(=O)(=O)N4CCCCCC4)cc3)CC2)c1 | – | active: 20.6 µM
41 | COc1ccc(OC)c(C(=O)CSc2nc3ncccc3[nH]2)c1 | – | inconclusive: 13 µM [cytotoxic, partial curve, poor fit]
42 | COc1cc2c(NC3CCN(C)CC3)nc(N3CCCN(C)CC3)nc2cc1OCCCCCCN(C)C | – | inconclusive: 5.17 µM [cytotoxic, partial curve, poor fit]
43 | COc1cc(COc2ccc3c(C)c(Cc4ccccc4)c(=O)oc3c2C)cc(OC)c1OC | inactive: 0% | –

Given in markdown: entries from further up.

| Row | Compound | activity change, negative = cytotoxicity | Potency |
| --- | --- | --- | --- |
| 24 | O=C(CN1CCc2ccccc2C1)Nc1ccc(Br)cc1 | – | inconclusive: 14.1 µM [cytotoxic, single point] |
| 25 | CCCCN(C)C(=O)c1oc2ccc(S(=O)(=O)N3CCCCCC3)cc2c1C | – | active: 2.59 µM |
